In the supplement of paper PMC10849652:
The other results are listed elsewhere or left out.

By UniProt entry, the sequences of proteins in these tests, tags left out. Where a name states a change or a piece, a line headed by the entry shows the natural chain unless it says otherwise.
UniProt O95834: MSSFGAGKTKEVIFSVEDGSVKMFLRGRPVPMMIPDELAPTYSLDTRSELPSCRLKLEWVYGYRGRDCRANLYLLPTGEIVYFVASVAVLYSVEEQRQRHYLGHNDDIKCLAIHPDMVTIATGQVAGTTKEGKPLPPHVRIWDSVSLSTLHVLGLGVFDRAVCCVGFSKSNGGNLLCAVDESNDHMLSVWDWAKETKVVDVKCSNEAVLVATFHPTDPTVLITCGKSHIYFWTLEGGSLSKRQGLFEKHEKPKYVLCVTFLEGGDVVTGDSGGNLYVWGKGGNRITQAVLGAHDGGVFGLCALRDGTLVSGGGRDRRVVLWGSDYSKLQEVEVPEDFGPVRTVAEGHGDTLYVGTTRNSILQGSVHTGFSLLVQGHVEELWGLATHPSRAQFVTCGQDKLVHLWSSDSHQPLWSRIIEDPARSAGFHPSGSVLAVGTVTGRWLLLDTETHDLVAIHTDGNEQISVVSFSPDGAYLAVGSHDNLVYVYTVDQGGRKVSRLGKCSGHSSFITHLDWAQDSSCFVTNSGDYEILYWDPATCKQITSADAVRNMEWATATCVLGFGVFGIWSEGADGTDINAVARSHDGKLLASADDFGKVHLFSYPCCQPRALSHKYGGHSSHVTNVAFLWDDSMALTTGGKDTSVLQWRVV
UniProt P41567, whole entry, looked up: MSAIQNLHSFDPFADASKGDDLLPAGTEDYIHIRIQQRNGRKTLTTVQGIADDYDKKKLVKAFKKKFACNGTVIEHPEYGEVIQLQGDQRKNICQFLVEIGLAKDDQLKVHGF
UniProt Q14240, whole entry, looked up: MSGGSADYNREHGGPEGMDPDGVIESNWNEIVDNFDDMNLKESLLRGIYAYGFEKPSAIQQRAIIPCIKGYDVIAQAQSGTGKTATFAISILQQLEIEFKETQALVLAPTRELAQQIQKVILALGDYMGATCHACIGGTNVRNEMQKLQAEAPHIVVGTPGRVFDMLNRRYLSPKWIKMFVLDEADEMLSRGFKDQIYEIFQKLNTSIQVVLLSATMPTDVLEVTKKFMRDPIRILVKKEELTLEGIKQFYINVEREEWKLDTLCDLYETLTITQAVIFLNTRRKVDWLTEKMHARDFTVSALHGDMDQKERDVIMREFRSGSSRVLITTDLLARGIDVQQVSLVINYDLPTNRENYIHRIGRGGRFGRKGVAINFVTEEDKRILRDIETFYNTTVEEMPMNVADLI
UniProt Q9UI10, whole entry, looked up: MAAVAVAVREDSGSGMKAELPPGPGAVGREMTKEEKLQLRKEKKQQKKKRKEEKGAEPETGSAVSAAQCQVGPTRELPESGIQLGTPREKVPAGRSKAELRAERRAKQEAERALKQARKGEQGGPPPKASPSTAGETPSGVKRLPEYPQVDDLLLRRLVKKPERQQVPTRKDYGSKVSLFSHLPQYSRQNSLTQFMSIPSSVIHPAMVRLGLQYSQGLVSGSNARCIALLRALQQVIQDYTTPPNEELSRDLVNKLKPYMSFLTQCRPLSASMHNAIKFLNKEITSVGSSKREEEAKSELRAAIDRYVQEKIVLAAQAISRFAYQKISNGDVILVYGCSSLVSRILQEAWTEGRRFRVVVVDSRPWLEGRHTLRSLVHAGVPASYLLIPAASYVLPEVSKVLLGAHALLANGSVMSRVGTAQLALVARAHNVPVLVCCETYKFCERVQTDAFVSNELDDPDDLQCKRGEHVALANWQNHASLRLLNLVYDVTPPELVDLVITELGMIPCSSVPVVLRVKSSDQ
UniProt Q14152, whole entry, looked up: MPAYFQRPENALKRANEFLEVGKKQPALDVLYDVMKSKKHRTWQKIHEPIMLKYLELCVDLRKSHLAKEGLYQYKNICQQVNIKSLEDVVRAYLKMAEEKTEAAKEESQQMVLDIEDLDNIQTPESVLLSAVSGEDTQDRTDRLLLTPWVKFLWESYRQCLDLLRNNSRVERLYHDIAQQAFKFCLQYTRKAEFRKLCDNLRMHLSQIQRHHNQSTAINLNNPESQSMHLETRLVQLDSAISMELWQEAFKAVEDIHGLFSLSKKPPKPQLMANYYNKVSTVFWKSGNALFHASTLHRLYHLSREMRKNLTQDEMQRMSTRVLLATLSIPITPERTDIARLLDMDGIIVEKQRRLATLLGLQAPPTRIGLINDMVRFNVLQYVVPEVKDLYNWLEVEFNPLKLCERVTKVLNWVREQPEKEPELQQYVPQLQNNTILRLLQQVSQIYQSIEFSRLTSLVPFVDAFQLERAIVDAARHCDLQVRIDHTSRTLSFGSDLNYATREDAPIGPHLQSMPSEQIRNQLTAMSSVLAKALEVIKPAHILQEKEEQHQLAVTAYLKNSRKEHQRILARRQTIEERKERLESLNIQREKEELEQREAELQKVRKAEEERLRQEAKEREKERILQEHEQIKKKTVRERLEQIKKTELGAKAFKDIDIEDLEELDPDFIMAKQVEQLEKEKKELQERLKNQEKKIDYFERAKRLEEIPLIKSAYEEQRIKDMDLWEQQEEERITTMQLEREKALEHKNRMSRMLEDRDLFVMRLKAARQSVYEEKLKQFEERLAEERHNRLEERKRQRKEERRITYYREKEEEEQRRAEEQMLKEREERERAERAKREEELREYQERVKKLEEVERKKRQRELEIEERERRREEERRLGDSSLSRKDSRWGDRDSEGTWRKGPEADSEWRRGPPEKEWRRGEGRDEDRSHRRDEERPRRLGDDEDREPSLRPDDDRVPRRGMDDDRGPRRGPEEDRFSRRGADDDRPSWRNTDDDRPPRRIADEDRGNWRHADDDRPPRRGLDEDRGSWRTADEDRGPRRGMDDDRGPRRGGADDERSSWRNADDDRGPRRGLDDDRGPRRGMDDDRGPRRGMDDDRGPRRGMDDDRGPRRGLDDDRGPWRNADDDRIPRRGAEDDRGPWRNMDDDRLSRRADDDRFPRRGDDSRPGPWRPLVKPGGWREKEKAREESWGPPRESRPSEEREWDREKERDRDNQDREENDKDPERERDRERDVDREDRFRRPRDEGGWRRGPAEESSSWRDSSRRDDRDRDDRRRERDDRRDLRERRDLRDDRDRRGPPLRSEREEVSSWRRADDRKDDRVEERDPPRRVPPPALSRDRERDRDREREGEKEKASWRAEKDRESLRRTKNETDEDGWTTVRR
UniProt P19525: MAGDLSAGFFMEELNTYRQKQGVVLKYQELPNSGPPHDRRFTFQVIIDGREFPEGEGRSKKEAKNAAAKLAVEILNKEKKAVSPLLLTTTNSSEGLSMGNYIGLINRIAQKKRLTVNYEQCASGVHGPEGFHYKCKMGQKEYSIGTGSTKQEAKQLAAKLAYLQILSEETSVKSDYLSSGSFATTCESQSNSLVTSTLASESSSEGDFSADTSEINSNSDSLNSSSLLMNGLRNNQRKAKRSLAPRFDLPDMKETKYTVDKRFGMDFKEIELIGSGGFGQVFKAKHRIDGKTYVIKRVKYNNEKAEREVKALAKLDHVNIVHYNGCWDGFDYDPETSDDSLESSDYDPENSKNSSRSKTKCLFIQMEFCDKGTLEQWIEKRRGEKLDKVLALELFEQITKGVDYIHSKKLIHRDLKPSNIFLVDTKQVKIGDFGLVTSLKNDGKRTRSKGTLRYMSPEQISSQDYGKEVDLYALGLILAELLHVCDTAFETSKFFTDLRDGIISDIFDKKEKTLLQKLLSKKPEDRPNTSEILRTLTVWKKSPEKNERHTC
UniProt Q8TE02: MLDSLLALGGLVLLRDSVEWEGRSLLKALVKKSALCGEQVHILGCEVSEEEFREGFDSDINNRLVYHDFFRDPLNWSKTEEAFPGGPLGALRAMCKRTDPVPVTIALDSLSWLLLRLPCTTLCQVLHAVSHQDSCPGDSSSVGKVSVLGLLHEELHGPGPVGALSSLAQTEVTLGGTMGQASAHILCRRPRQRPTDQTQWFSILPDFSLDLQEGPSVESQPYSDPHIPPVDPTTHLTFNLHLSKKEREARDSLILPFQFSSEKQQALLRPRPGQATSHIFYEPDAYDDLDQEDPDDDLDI
UniProt P63241: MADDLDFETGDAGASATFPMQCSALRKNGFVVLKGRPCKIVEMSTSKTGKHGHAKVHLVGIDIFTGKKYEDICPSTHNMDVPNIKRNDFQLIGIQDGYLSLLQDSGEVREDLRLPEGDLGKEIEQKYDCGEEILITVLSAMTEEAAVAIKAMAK
UniProt Q13144, whole entry, looked up: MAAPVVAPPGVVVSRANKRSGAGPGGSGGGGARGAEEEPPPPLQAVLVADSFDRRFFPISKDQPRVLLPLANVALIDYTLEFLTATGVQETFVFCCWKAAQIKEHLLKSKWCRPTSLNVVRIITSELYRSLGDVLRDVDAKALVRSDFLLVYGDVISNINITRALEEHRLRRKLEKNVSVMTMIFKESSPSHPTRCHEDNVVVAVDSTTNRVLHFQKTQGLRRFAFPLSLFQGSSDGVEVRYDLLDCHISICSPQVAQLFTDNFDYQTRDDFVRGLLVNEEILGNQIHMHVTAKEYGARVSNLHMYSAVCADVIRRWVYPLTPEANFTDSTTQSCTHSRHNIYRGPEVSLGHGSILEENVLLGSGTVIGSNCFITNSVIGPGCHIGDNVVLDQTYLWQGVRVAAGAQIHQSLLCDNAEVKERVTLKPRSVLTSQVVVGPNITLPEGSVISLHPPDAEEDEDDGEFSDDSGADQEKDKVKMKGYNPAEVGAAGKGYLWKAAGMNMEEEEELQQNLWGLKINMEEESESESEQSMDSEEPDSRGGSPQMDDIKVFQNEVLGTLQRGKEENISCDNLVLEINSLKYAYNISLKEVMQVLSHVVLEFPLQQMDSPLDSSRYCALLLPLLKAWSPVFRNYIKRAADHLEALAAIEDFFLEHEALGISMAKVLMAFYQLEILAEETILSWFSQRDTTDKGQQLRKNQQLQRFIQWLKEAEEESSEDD
UniProt Q9UHY7: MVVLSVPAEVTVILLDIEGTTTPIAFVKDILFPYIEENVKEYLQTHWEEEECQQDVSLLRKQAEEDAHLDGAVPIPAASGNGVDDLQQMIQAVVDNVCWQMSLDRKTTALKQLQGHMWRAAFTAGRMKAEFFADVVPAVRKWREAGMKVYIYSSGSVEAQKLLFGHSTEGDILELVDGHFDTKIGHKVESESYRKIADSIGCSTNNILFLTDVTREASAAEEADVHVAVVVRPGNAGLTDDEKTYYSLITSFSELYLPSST
UniProt Q9H9B1: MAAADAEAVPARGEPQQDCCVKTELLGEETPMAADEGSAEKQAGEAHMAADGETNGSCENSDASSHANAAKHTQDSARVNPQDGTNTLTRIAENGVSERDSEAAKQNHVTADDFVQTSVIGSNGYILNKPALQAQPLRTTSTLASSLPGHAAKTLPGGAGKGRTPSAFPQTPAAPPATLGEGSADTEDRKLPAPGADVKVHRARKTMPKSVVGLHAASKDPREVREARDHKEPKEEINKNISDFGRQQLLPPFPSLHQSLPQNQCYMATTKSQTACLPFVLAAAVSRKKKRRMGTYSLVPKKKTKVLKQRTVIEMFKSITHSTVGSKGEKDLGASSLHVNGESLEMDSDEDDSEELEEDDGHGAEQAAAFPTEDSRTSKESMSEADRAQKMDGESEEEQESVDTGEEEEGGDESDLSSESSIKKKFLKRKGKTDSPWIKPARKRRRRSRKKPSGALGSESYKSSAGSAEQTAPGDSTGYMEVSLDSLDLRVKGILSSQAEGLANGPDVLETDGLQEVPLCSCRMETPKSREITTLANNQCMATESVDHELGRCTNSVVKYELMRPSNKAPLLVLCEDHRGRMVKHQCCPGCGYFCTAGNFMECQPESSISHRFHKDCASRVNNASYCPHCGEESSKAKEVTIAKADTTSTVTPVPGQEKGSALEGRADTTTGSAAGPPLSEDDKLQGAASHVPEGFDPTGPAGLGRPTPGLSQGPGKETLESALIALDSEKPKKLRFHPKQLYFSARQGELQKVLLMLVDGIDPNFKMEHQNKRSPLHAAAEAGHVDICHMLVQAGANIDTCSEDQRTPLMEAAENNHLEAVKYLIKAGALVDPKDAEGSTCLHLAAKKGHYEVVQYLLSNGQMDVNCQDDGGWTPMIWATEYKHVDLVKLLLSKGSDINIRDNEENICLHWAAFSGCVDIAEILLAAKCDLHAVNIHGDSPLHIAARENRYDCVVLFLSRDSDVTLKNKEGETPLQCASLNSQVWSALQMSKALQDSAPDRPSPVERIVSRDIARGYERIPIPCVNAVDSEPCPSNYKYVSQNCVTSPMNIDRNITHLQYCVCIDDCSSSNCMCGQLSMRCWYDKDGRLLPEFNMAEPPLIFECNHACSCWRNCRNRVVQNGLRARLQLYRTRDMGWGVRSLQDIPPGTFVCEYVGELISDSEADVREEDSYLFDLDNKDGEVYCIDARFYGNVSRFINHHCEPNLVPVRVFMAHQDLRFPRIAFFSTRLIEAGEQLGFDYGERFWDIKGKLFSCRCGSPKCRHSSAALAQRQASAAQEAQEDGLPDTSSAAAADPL

Tests used:
Test in all cases: log2 fold change, soluble protein after heating vs DMSO (PISA); higher = thermal stabilisation; K562 cells, 10 uM, 30 min; active = over 0.2 and 3.5 SD of the protein, either way, in both replicates (recomputed)
[1] = compound: CN1CCN(CCOc2cc(OC3CCOCC3)c3c(Nc4c(Cl)ccc5c4OCO5)ncnc3c2)CC1 [saracatinib]
How it was run: (§1)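 K562 cells at 2×10^6 cells/mL were treated with 10 μM compound for 30 min. Aliquots were heated for 3 min across 48°C-58°C, pooled, and extracted in PBS with 0.5% NP-40 at 4°C; soluble protein was the supernatant after 21,000xg for 90 min. Soluble protein was quantified by TMTpro 16plex LC-MS/MS with channel sums equalised, and reported as log2 fold change in thermal stability against DMSO controls, with values from duplicates.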

[2] = compound: CN1CCN(c2nc(C3=C(c4c[nH]c5ccccc45)C(=O)NC3=O)c3ccccc3n2)CC1 [sotrastaurin]
How it was run: as §1

[3] = compound: CN1CC[C@H](c2c(O)cc(O)c3c(=O)cc(-c4ccccc4Cl)oc23)[C@H](O)C1 [alvocidib]
How it was run: as §1

[4] = compound: CN1CCc2c(c3ccccc3n2Cc2ccc(C(=O)NO)cc2)C1 [Tubastatin A]
How it was run: as §1

[5] = compound: CNC(=O)C1=CC=CC=C1NC2=NC(=NC=C2Cl)NC3=C(C=C(C=C3)N4CCOCC4)OC
How it was run: as §1

[6] = compound: CNC(=O)c1ccc(Nc2ncc(C(F)(F)F)c(NCc3nccnc3N(C)S(C)(=O)=O)n2)cc1 [defactinib]
How it was run: as §1

[7] = compound: CNCc1ccc(-c2[nH]c3cc(F)cc4c3c2CCNC4=O)cc1 [rucaparib]
How it was run: as §1

[8] = compound: CNc1nc(-c2ccc3c(N)n[nH]c3c2)cc(N2C[C@@H](C(=O)NC3CCCCC3)CC[C@H]2C)n1
How it was run: as §1

[9] = compound: COC(=O)N[C@@H](C)CNc1nccc(-c2cn(C(C)C)nc2-c2cc(Cl)cc(NS(C)(=O)=O)c2F)n1 [encorafenib]
How it was run: as §1

[10] = compound: COC(=O)[C@H](CCSC)NC(=O)C1=C(C=C(C=C1)NC[C@H](CS)N)C2=CC=CC=C2
How it was run: as §1

[11] = compound: COC1=CC=C(C=C1)CN2C=CC3=C2C=C(C=C3)C(=O)NO
How it was run: as §1

[12] = compound: CON(C)C(=O)N1N=C(c2cc(F)ccc2F)S[C@@]1(CCCN)c1ccccc1 [filanesib]
How it was run: as §1

[13] = compound: CO[C@H]1C[C@@H]2CC[C@@H](C)[C@@](O)(O2)C(=O)C(=O)N2CCCC[C@H]2C(=O)O[C@H]([C@H](C)C[C@@H]2CC[C@H](n3cnnn3)[C@H](OC)C2)CC(=O)[C@H](C)/C=C(\C)[C@@H](O)[C@@H](OC)C(=O)[C@H](C)C[C@H](C)/C=C/C=C/C=C/1C [zotarolimus]
How it was run: as §1

[14] = compound: COc1cc(C(=O)O)ccc1NC(=O)[C@@H]1N[C@@H](CC(C)(C)C)[C@](C#N)(c2ccc(Cl)cc2F)[C@H]1c1cccc(Cl)c1F [idasanutlin]
How it was run: as §1

[15] = compound: COc1cc(Nc2ncc3c(n2)-c2ccc(Cl)cc2C(c2c(F)cccc2OC)=NC3)ccc1C(=O)O [alisertib]
How it was run: as §1

[16] = compound: COc1cc2nc(-c3cc(F)ccc3O)nc(N[C@@H]3CNC[C@H]3C(C)(C)O)c2cc1OC
How it was run: as §1

[17] = compound: COc1cc2ncnc(Nc3ccc(F)c(Cl)c3)c2cc1OCCCN1CCOCC1 [gefitinib]
How it was run: as §1

[18] = compound: COc1cccc2cc(-c3nc([C@H]4CC[C@H](C(=O)O)CC4)n4ncnc(N)c34)[nH]c12
How it was run: as §1

[19] = compound: CS(=O)(=O)CCNCc1ccc(-c2ccc3ncnc(Nc4ccc(OCc5cccc(F)c5)c(Cl)c4)c3c2)o1 [lapatinib]
How it was run: as §1

[20] = compound: CS(=O)(=O)N1CCN(Cc2cc3nc(-c4cccc5[nH]ncc45)nc(N4CCOCC4)c3s2)CC1 [pictilisib]
How it was run: as §1

Measured: log2 fold change

EML2 isoform 3 (UniProt O95834)
inactive: [1] 0.02 | [2] 0.029 | [3] -0.078 | [4] 0.005 | [5] -0.035 | [6] -0.033 | [7] -0.041 | [8] -0.027 | [9] -0.028 | [10] 0.004 | [11] -0.039 | [12] -0.127 | [13] 0.014 | [14] -0.077 | [15] -0.018 | [16] 0.001 | [17] -0.015 | [18] 0.04 | [19] -0.013 | [20] 0.06

EIF1 (UniProt P41567)
inactive: [1] 0.103 | [2] 0.102 | [3] 0.048 | [4] -0.003 | [5] 0.001 | [6] 0.051 | [7] -0.035 | [8] -0.016 | [9] 0.044 | [10] 0.103 | [11] -0.067 | [12] 0.019 | [13] 0.014 | [14] 0.029 | [15] -0.021 | [16] 0.025 | [17] -0.06 | [18] 0.011 | [19] -0.067 | [20] -0.028

EIF4A2 isoform 2 (UniProt Q14240)
inactive: [1] -0.007 | [2] -0.021 | [3] -0.099 | [4] 0.002 | [5] -0.006 | [6] -0.083 | [7] -0.009 | [8] -0.004 | [9] 0.063 | [10] -0.015 | [11] -0.025 | [12] -0.053 | [13] 0 | [14] -0.087 | [15] -0.026 | [16] -0.011 | [17] 0.015 | [18] -0.002 | [19] -0.008 | [20] -0.047

EFTUD2 (UniProt Q15029)
inactive: [1] 0.066 | [2] 0.019 | [3] 0.058 | [4] -0.041 | [5] -0.029 | [6] 0.032 | [7] -0.035 | [8] -0.041 | [9] -0.019 | [10] 0.045 | [11] 0.005 | [12] 0.008 | [13] -0.022 | [14] 0.017 | [15] -0.078 | [16] -0.04 | [17] -0.016 | [18] 0.066 | [19] 0.043 | [20] -0.037

EIF2B4 isoform 2 (UniProt Q9UI10)
inactive: [1] 0.014 | [2] -0.008 | [3] -0.022 | [4] 0.129 | [5] 0.004 | [6] 0.047 | [7] 0.046 | [8] 0.092 | [9] 0.116 | [10] -0.001 | [11] 0.013 | [12] 0.068 | [13] 0.076 | [14] 0.042 | [15] -0.081 | [16] 0.017 | [17] 0.057 | [18] -0.106 | [19] -0.02 | [20] -0.033

ENPP3 (UniProt O14638)
inactive: [1] -0.11 | [2] -0.071 | [3] 0 | [5] -0.012 | [6] 0.009 | [7] 0.167 | [8] -0.161 | [9] 0.008 | [10] 0.029 | [11] -0.192 | [12] 0.059 | [13] 0.131 | [14] 0.078 | [15] 0.009 | [16] 0.055 | [17] -0.061 | [18] -0.095 | [19] -0.056 | [20] 0.141

EIF4ENIF1 isoform 3 (UniProt Q9NRA8)
inactive: [1] -0.034 | [2] 0.004 | [3] -0.065 | [4] 0.069 | [5] 0.01 | [6] 0.036 | [7] -0.017 | [8] -0.013 | [9] -0.035 | [10] 0.001 | [11] 0.045 | [12] 0.052 | [13] -0.046 | [14] 0.042 | [15] -0.085 | [16] 0.04 | [18] -0.044 | [19] 0.008 | [20] 0.109

EIF3A (UniProt Q14152)
inactive: [1] -0.128 | [2] -0.206 | [3] -0.032 | [4] 0.092 | [5] 0.002 | [6] -0.041 | [7] 0.192 | [8] 0.044 | [9] 0.12 | [10] -0.106 | [11] 0.024 | [12] 0.047 | [13] 0.055 | [14] 0.009 | [15] -0.067 | [16] 0.029 | [17] 0.025 | [18] -0.212 | [19] -0.005 | [20] -0.016

Reprinted at random: 2 records from the list.
EFTUD2 (UniProt Q15029)
inactive: [1] 0.066 | [2] 0.019 | [3] 0.058 | [4] -0.041 | [5] -0.029 | [6] 0.032 | [7] -0.035 | [8] -0.041 | [9] -0.019 | [10] 0.045 | [11] 0.005 | [12] 0.008 | [13] -0.022 | [14] 0.017 | [15] -0.078 | [16] -0.04 | [17] -0.016 | [18] 0.066 | [19] 0.043 | [20] -0.037

ENPP3 (UniProt O14638)
inactive: [1] -0.11 | [2] -0.071 | [3] 0 | [5] -0.012 | [6] 0.009 | [7] 0.167 | [8] -0.161 | [9] 0.008 | [10] 0.029 | [11] -0.192 | [12] 0.059 | [13] 0.131 | [14] 0.078 | [15] 0.009 | [16] 0.055 | [17] -0.061 | [18] -0.095 | [19] -0.056 | [20] 0.141

More records follow.

EIF2AK2 (UniProt P19525)
inactive: [1] -0.099 | [2] -0.344 | [3] 0.176 | [4] 0.145 | [5] 0.012 | [6] 0.3 | [7] 0.639 | [8] 0.13 | [9] 0.233 | [10] 0.114 | [11] -0.079 | [12] 0.453 | [13] 0.056 | [14] 0.407 | [15] -0.018 | [18] -0.366 | [20] -0.207

ELP5 isoform 4 (UniProt Q8TE02)
inactive: [1] 0.049 | [2] 0.024 | [3] -0.002 | [4] -0.007 | [5] -0.005 | [6] 0.011 | [7] 0.115 | [8] -0.037 | [9] -0.055 | [10] -0.004 | [11] -0.051 | [12] 0.012 | [13] 0.007 | [14] 0.017 | [15] -0.07 | [16] 0.009 | [17] 0.023 | [18] 0.04 | [19] -0.049 | [20] 0.005

EIF3G (UniProt K7ER90)
inactive: [1] -0.169 | [2] -0.118 | [3] -0.048 | [4] 0.021 | [5] 0.071 | [6] -0.039 | [8] -0.094 | [10] -0.022 | [11] 0.108 | [12] 0.057 | [13] -0.194 | [14] -0.039 | [15] 0.02 | [17] -0.148 | [18] 0.018

EIF5A isoform 2 (UniProt P63241)
inactive: [1] 0.02 | [2] -0.1 | [3] -0.109 | [4] 0.025 | [5] 0 | [6] -0.123 | [7] -0.022 | [8] 0.063 | [9] 0.088 | [10] -0.06 | [11] 0.082 | [12] -0.12 | [13] 0.083 | [14] -0.03 | [15] -0.018 | [16] 0.002 | [17] 0.016 | [18] -0.034 | [19] 0 | [20] 0.086

EIF2B5 (UniProt Q13144)
inactive: [1] -0.02 | [2] -0.031 | [3] 0.038 | [4] 0 | [5] -0.004 | [6] 0.087 | [7] 0.064 | [8] 0.088 | [9] 0.099 | [10] -0.024 | [11] 0.035 | [12] 0.045 | [13] -0.001 | [14] 0.032 | [15] -0.127 | [16] 0.053 | [17] 0.024 | [18] -0.088 | [19] 0.041 | [20] 0.01

EIF3B isoform 2 (UniProt P55884)
inactive: [1] -0.055 | [2] -0.189 | [3] 0.059 | [4] 0.036 | [5] 0.011 | [6] 0 | [7] 0.196 | [8] 0.075 | [9] 0.173 | [10] -0.059 | [11] -0.012 | [12] 0.086 | [13] 0.051 | [14] 0.034 | [15] -0.161 | [16] -0.008 | [17] 0 | [18] -0.233 | [19] 0.05 | [20] -0.064

ENOPH1 (UniProt Q9UHY7)
inactive: [1] 0.001 | [2] -0.099 | [3] -0.163 | [4] 0.127 | [5] 0.077 | [6] -0.093 | [7] 0.014 | [8] 0.059 | [9] 0 | [10] -0.063 | [11] 0.072 | [12] -0.047 | [13] 0.057 | [14] -0.058 | [15] -0.018 | [16] 0.047 | [17] 0.003 | [18] -0.026 | [19] 0.04 | [20] 0.11

EHMT1 (UniProt Q9H9B1)
inactive: [1] -0.027 | [2] -0.116 | [3] -0.017 | [4] 0.049 | [5] -0.082 | [6] -0.009 | [8] 0.049 | [10] 0.003 | [11] 0.019 | [12] 0.041 | [13] 0.024 | [14] 0.046 | [15] 0.193 | [16] -0.106 | [18] -0.082 | [19] 0.006 | [20] 0.226
